How the values were obtained:
[1] = general procedure: peptide synthesis; HMP-resin; BOP, DIEA (solution-phase fragment couplings); conditions: tetrakis-trifluoroacetic acid salt
peptide synthesis = conditions: late stage modification step

Substance	step yield ([1]; coupling step) [%]	step yield (peptide synthesis; tetrakis-TFA salt) [%]	step yield (peptide synthesis; tetrakis-trifluoroacetic acid salt) [%]	isolated mass ([1]; whole synthesis, scale 19.3 umol) [mg]	isolated yield ([1]; whole synthesis) [%]
CBZ-Cys(CBZ)-Thr(O-t-Bu)-Gly-Hpu(N7,N12-di-CBZ,O9-THP)-His(BOC)-Gly-O-t-Bu	81				
Cys-Thr-Gly-Hpu-His-Gly (SEQ ID NO: 3), Trifluoroacetic Acid Salt		22	24	5.2	24
